# Laboratory results reported in publication PMC7266957.
# Molecular target: N-His-Cas7fv of Shewanella putrefaciens CN-32 (Shewanella putrefaciens CN-32)
# Experiment: co-purification (Ni-NTA affinity chromatography, then SEC); Cascade components and crRNA co-expressed in E. coli; His-tag on Cas7fv (I-Fv) or Cas7f (I-F); HisTrap HP, then HiLoad 16/600 Superdex 200 pg; complex formation corroborated by SDS-PAGE, Urea-PAGE and mass spectrometry
binder,measurement,value
"Cas6f of Shewanella putrefaciens CN-32 (protein, UniProt A0ABX8XGP4 1-224) MKYYLDITLLPDAEANLGFLWHKVYQQIHLMLVEHKVSVENSAIGLSFPKYDAKSFSDNTKFPLGDKLRLFAGTEQQLADLKVAQWLARLADYVHIKAIKAVPDNVSEYAYFKRRHFKSPDKLRRNIDARAIVIAQKNGFDINEVKTRLLASIDNLDTKSKLPFINLRSLSTEKDVSPADRRKFLLFIECEKVTKPSQNNGLFNCYGLSRRAQTEQAAVPWFEG",binding,binds

# No constants are given. Whether binding was seen depends on the method and setting. Binding seen in cells or lysates may run through a third protein. A result given as binding can be weak or reduced; the word gives no strength.
